Test results from patent US8138211B2, “Isothiazolyloxyphenylamidines and their use as fungicides” (Bayer Cropscience AG, priority 2009, dated 2012).
Some entries share one result that the patent states for a list of compounds. At least one structure is not confirmed: it was looked up by name or label, or the drawing left a doubt.

Columns and labels:
Assay type in all cases: in vivo
Puccinia recondita = test: Puccinia test (wheat)/protective; details: active compound concentration of 500 ppm, protective, evaluation 7-9 days after inoculation
Botrytis cinerea = test: Botrytis test (bean)/protective; details: active compound concentration of 250 ppm, protective, evaluation two days after inoculation
Uromyces appendiculatus = test: Uromyces test (bean)/protective; details: active compound concentration of 10 ppm, protective, evaluation 10 days after inoculation
Leptosphaeria nodorum = Leptosphaeria nodorum test (wheat)/protective; details: active compound concentration of 500 ppm, protective, evaluation 8 days after inoculation
Septoria tritici = Septoria tritici test (wheat)/protective; details: active compound concentration of 500 ppm, protective, evaluation 21 days after inoculation
Pyrenophora teres = Pyrenophora teres test (barley)/protective; details: active compound concentration of 500 ppm, protective, evaluation 8 days after inoculation
Sphaerotheca fuliginea = test: Sphaerotheca test (cucumber)/protective; details: active compound concentration of 500 ppm, protective, evaluation 7 days after inoculation

Measured: efficacy

CCN(C)C=Nc1cc(C)c(Oc2snc(C(C)(C)C)c2C#N)cc1C [compound 6]
not listed: Sphaerotheca fuliginea
≥ 70%: all other assays above

Cc1cc(Oc2snc(C(C)(C)C)c2C#N)c(C)cc1N=CN(C)C [compound 8]
≥ 70%: all assays above

CCN(C)C=Nc1cc(C)c(Oc2snc(-c3cccc(C)c3)c2C#N)cc1C [compound 25]
≥ 70%: all assays above

CCN(C)C=Nc1cc(C)c(Oc2snc(-c3ccccc3)c2Br)cc1C [compound 34]
not listed: Pyrenophora teres
≥ 70%: all other assays above

CCN(C)C=Nc1cc(C)c(Oc2snc(C(C)(C)C)c2Cl)cc1C [compound 64]
not listed: Sphaerotheca fuliginea
≥ 70%: all other assays above

Cc1cc(Oc2snc(C(C)(C)C)c2Cl)c(C)cc1N=CN(C)C(C)C [compound 65]
≥ 70%: all assays above

Cc1cc(Oc2snc(C(C)(C)C)c2Cl)c(C)cc1/N=C/N1CCCCC1 [compound 66]
≥ 70%: all assays above

CCN(C)C=Nc1cc(C)c(Oc2snc(C(C)(C)C)c2Cl)cc1Cl [compound 67]
≥ 70%: all assays above

Cc1cc(N=CN(C)C(C)C)c(Cl)cc1Oc1snc(C(C)(C)C)c1Cl [compound 68]
≥ 70%: all assays above

CCN(C)C=Nc1cc(Cl)c(Oc2snc(C(C)(C)C)c2Cl)cc1C [compound 70]
not listed: Sphaerotheca fuliginea
≥ 70%: all other assays above

Cc1cc(Oc2snc(C(C)(C)C)c2Cl)c(Cl)cc1/N=C/N1CCCCC1 [compound 72]
≥ 70%: all assays above

CCN(C)C=Nc1cc(C)c(Oc2snc(-c3cccc(F)c3)c2C#N)cc1C [compound 78]
≥ 70%: all assays above

Cc1cc(Oc2snc(-c3ccccc3C)c2C#N)c(C)cc1N=CN(C)C(C)C [compound 80]
≥ 70%: all assays above

CCN(C)C=Nc1cc(C)c(Oc2snc(-c3ccccc3C)c2C#N)cc1C [compound 81]
≥ 70%: all assays above

CCN(C)C=Nc1cc(C)c(Oc2snc(C)c2Cl)cc1C [compound 83]
≥ 70%: all assays above

Cc1cc(Oc2snc(C)c2Cl)c(C)cc1/N=C/N1CCCCC1 [compound 84]
≥ 70%: all assays above

CCN(C)C=Nc1cc(C)c(Oc2snc(CC(C)(C)C)c2C#N)cc1C [compound 98]
≥ 70%: all assays above

Cc1cc(Oc2snc(C3(Cl)CC3)c2C#N)c(C)cc1N=CN(C)C [compound 99]
≥ 70%: all assays above

CCN(C)C=Nc1cc(C)c(Oc2snc(C3(Cl)CC3)c2C#N)cc1C [compound 100]
≥ 70%: all assays above

CCN(C)C=Nc1cc(C)c(Oc2snc(C)c2Br)cc1C [compound 103]
≥ 70%: all assays above

CCN(C)C=Nc1cc(C)c(Oc2snc(C(C)(C)c3ccccc3)c2C#N)cc1C [compound 122]
not listed: Pyrenophora teres
≥ 70%: all other assays above

Cc1cc(Oc2snc(-c3ccccc3Cl)c2C#N)c(C)cc1N=CN(C)C [compound 123]
≥ 70%: all assays above

Cc1cc(Oc2snc(-c3ccccc3Cl)c2C#N)c(C)cc1N=CN(C)C(C)C [compound 124]
≥ 70%: all assays above

CCN(C)C=Nc1cc(C)c(Oc2snc(C(C)(C)C(C)C)c2C#N)cc1C [compound 166]
≥ 70%: all assays above

CCN(C)C=Nc1cc(Cl)c(Oc2snc(C(C)(C)C)c2C#N)cc1C [compound 167]
≥ 70%: all assays above

CCN(C)C=Nc1cc(C)c(Oc2snc(C(C)c3ccccc3)c2C#N)cc1C (stereo not drawn) [compound 174]
≥ 70%: all assays above

CCN(C)C=Nc1cc(C)c(Oc2snc(C3(C)CC3)c2C#N)cc1C [compound 179]
≥ 70%: all assays above

CCN(C)C=Nc1cc(C)c(Oc2snc(C(C)(C)CC)c2C#N)cc1C [compound 181]
≥ 70%: all assays above

CCN(C)C=Nc1cc(F)c(Oc2snc(C(C)(C)C)c2C#N)cc1C [compound 184]
not listed: Pyrenophora teres
≥ 70%: all other assays above

CCN(C)C=Nc1cc(C)c(Oc2snc(C(C)(CC)CC)c2C#N)cc1C [compound 189]
not listed: Puccinia recondita | Sphaerotheca fuliginea
≥ 70%: all other assays above

CCN(C)C=Nc1cc(C)c(Oc2snc(C3(C)CCCCC3)c2C#N)cc1C [compound 195]
not listed: Pyrenophora teres
≥ 70%: all other assays above

CCN(C)C=Nc1cc(Cl)c(Oc2snc(C(C)(C)CC)c2C#N)cc1C [compound 199]
not listed: Puccinia recondita | Sphaerotheca fuliginea
≥ 70%: all other assays above

CCN(C)C=Nc1cc(C)c(Oc2cc(C)ns2)cc1C [compound 203]
not listed: Botrytis cinerea
≥ 70%: all other assays above
